According to article PMC9756088:
These are yes or no findings as the source states them, for the method shown. Binding can be weak; no strength is given.

Biological target: T1, FZO-1 N-terminal portion (amino acids 1-617, containing both GTPase and heptad repeat 1 domains) (C. elegans) (UniProt Q23424)
T1 sequence: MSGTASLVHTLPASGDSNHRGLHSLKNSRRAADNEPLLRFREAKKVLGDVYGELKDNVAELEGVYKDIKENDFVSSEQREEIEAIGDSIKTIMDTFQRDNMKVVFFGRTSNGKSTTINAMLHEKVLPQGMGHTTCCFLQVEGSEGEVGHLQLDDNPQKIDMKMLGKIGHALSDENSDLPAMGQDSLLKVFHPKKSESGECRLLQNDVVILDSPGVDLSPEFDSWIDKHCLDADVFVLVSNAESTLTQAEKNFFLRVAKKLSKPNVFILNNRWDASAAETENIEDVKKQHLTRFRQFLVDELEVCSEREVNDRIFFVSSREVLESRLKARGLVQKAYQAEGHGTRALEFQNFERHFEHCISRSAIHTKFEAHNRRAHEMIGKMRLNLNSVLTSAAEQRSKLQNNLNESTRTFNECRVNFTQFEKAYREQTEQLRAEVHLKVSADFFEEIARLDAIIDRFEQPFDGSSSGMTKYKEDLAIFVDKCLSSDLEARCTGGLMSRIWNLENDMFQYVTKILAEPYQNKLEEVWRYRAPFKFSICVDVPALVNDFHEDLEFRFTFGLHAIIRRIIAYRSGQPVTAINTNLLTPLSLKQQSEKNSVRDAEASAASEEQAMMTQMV
Test: two-hybrid; large-scale yeast two-hybrid screen by Hybrigenics Services; bait FZO-1 amino acids 1-617 in a GAL4 vector; prey libraries from pooled polyA+ RNA of N2 C. elegans (mixed stage, normal or stressed, and dauer larvae); 264 million potential interactions examined

Row | Substance | binding
1 | Y59A8B.10 isoform a (C. elegans) | binds
2 | PKN-1 (C. elegans) | binds
3 | USP-5 (C. elegans) | binds

Other lines, results leading:

Row | binding | Substance
4 | binds | AFD-1 (C. elegans)
5 | binds | F08F8.9 isoform b (C. elegans)
